The text below walks through data of doi:10.1101/728410.

The target of one assay is T1, GST-tagged PRMT7 (UniProt Q9NVM4).
T1 sequence: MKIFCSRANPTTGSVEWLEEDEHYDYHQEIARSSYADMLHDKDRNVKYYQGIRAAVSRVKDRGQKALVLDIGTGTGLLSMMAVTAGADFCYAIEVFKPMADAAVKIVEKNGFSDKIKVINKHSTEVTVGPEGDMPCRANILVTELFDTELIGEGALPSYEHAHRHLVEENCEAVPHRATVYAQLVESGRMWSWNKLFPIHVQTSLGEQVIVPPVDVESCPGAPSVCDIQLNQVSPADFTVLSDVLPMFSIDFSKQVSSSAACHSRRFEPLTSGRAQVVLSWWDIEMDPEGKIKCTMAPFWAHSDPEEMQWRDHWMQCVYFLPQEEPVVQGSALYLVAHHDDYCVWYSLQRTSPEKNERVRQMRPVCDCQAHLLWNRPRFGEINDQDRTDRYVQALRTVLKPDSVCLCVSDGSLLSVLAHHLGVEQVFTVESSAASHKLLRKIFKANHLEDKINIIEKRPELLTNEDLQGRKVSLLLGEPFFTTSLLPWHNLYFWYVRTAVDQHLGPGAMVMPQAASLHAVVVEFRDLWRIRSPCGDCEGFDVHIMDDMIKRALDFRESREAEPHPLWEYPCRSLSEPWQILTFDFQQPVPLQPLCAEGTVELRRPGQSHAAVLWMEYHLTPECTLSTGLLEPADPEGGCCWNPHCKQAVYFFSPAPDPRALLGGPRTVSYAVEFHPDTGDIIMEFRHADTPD
Description: pull-down.

In assay [1] the target is T2, PRMT7 (endogenous) (human (endogenous in MDA-MB-231)) (UniProt Q9NVM4).
T2 sequence: T1 sequence
The assay can be described thus: co-IP.

These are yes or no findings as the source states them, for the method shown. In cells and extracts the contact can be indirect. Binding calls can cover weak binding; strength is not graded here. For some assays here: Sequences can lack the tags named with a protein.

shank2 (endogenous): the binding entry (with GST-tagged PRMT7; in assay [1]) was “binds” each time.
